These are yes or no findings as the source states them, for the method shown. Some results given as binding are weak or reduced against the parent protein; the word gives no strength.

The chains behind the UniProt entries cited, without tags or fusion partners. Where a name states a change or a piece, a line headed by the entry shows the natural chain unless it says otherwise.
UniProt P06756: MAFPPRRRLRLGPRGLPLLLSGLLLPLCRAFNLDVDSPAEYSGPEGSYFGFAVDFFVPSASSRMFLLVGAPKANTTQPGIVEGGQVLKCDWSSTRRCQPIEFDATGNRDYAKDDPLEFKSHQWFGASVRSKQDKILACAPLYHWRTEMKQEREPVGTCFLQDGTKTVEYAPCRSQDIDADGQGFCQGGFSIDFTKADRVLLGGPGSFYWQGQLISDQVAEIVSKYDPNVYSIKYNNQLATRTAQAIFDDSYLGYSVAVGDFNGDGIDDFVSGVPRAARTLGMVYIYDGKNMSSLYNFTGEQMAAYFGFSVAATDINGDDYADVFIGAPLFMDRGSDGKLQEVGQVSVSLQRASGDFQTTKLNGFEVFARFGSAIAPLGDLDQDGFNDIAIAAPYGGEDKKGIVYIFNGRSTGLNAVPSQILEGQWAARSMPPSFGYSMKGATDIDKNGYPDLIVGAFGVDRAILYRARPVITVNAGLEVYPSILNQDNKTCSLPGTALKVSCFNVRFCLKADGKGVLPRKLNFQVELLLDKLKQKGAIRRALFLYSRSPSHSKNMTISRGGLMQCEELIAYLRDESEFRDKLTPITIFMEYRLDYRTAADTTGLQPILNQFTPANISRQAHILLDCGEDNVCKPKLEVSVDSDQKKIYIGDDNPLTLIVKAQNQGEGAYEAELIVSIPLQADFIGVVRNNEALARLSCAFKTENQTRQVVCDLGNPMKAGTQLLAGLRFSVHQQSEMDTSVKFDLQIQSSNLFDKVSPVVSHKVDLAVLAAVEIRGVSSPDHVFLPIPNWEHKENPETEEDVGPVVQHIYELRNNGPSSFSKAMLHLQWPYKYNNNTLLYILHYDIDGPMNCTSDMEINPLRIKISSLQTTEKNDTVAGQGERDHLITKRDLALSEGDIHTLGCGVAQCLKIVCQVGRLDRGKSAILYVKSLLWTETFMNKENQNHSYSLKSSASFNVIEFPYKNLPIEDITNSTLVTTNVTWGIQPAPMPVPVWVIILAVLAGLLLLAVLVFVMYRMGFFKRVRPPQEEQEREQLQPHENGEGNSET
UniProt P05106: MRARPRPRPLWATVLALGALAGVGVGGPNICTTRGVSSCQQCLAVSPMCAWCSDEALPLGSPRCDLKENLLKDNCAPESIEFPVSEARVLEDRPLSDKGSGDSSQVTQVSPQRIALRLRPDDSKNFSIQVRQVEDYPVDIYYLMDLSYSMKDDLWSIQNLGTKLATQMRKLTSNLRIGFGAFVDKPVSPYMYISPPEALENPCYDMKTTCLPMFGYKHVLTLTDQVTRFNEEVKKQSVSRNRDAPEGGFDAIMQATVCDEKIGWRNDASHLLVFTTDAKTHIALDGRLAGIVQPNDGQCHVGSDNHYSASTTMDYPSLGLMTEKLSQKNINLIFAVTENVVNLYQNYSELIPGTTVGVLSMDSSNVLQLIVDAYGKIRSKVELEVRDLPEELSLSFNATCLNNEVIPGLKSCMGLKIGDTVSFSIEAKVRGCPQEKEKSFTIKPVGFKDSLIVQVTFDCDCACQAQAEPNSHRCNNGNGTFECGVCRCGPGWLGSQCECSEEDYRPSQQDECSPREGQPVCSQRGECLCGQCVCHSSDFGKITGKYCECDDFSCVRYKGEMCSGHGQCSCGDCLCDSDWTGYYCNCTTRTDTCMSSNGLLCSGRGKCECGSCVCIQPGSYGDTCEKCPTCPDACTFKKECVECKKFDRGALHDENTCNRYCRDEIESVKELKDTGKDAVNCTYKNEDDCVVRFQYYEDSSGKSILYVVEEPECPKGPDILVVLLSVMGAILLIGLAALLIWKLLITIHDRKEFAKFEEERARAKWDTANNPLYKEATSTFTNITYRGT

Drawing on patent publication US7041801, this text covers binding for one molecule.

In the assay the target is integrin αVβ3 expressed by human umbilical vein endothelial cells (HUVEC) (human) (UniProt P06756+P05106). Briefly: adhesion of HUVEC to plates coated with recombinant Del-1.

B1: Recombinant murine Del-1 protein (major form), refolded, from E. coli pET28a (ligand, not shown: small tags and cut ends)
chain: DICNPNPCENGGICLSGLADDSFSCECPEGFAGPNCSSVVEVASDEEKPTSAGPCIPNPCHNGGTCEISEAYRGDTFIGYVCKCPRGFNGIHCQHNINECEAEPCRNGGICTDLVANYSCECPGEFMGRNCQYKCSGHLGIEGGIISNQQITASSNHRALFGLQKWYPYYARLNKKGLINAWTAAENDRWPWIQINLQRKMRVTGVITQGAKRIGSPEYIKSYKIAYSNDGKTWAMYKVKGTNEEMVFRGNVDNNTPYANSFTPPIKAQYVRLYPQICRRHCTLRMELLGCELSGCSEPLGMKSGHIQDYQITASSVFRTLNMDMFTWEPRKARLDKQGKVNAWTSGHNDQSQWLQVDLLVPTKVTGIITQGAKDFGHVQFVGSYKLAYSNDGEHWMVHQDEKQRKDKVFQGNFDNDTHRKNVIDPPIYARFIRILPWSWYGRITLRSELLGCAEEE
For B1, the binding result was “binds”.
